# According to doi:10.1101/2024.03.04.583415:
# Protein sequences, listed by entry. Tags and fused reporters are not part of them.
# UniProt Q96KQ7: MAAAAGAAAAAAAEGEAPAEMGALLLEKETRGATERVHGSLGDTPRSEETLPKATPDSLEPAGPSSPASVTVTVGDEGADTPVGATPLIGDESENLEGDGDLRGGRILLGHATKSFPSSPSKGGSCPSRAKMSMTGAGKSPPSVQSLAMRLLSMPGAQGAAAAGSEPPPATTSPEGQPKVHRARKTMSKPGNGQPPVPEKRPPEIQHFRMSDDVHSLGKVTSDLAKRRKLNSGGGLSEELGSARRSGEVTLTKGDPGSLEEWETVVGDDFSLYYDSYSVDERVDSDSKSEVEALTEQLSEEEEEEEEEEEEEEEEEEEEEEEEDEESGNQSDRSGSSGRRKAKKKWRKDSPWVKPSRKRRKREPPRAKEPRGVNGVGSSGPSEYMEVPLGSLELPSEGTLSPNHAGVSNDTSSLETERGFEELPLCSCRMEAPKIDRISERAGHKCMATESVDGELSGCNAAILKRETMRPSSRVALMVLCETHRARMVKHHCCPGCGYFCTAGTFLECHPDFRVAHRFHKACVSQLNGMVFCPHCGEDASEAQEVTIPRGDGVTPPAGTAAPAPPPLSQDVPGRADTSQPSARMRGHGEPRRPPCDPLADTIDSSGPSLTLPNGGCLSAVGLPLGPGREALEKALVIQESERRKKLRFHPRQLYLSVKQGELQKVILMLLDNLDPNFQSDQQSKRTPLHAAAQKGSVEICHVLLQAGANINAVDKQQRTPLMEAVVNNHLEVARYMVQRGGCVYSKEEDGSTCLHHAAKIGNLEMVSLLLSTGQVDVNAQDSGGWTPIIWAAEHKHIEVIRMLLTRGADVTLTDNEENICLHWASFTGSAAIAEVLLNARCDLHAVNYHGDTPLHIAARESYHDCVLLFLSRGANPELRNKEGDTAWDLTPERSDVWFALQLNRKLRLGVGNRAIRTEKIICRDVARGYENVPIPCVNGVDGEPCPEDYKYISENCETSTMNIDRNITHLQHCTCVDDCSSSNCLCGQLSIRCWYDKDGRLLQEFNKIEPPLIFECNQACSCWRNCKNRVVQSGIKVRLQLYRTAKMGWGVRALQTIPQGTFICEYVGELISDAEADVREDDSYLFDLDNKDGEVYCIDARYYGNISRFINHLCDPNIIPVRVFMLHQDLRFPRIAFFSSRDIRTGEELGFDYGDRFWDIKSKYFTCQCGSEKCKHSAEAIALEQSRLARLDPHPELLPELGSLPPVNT
# UniProt Q86U44: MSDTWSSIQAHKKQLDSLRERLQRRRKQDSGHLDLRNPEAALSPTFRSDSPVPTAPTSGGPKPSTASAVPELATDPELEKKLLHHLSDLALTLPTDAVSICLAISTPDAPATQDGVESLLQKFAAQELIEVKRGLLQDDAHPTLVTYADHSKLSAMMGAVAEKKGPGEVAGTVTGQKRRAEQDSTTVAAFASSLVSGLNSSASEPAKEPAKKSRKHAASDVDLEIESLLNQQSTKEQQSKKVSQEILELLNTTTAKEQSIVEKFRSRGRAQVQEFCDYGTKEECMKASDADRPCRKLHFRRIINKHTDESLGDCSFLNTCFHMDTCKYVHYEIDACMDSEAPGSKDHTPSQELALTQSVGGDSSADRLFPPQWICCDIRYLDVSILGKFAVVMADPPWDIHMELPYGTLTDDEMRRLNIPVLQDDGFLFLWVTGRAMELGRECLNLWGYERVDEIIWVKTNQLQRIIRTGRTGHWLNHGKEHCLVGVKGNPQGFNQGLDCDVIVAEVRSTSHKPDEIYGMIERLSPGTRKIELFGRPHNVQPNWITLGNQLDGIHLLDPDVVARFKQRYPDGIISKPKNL
# Molecular target: histone methyltransferase G9a (human (endogenous in PBMCs of COVID-19 patients)) (UniProt Q96KQ7)
# Assay: affinity purification with mass spectrometry
substance,measurement,value
N6-methyladenosine (m6A) RNA methylase METTL3 (from UniProt Q86U44 1-580) (enzyme),binding,binds

# Results are given in words; binding and its absence hold for the method and conditions named. In cells and extracts the contact can be indirect. These calls come from enrichment with a bait or labelling near it, and not all partners need be listed.
